Measurements reported in PubChem BioAssay AID504786 (Drosophila RNAi Screening Center, 2011).
The deposit covers about 21,000 reagents; below is a random part of those that have a named target and a result. 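Primary screen; positive scores mean lost reporter signal, so the sign may be inverted from the usual convention.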 A plus sign joins genes that one reagent is predicted to hit. Reagent sequences are not shown.

- Purpose: 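Positive regulators of HIF-driven reporter output in Drosophila cells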 (primary screen)
- Cell system: Drosophila S2 cells with a stable HIF luciferase reporter
- Reagents: long dsRNA against Drosophila genes, about 0.2 µg dsRNA per well of a 384-well plate
- Duration: three days of knock-down, then 20 h of DFO before reading
- Treatment: desferrioxamine (DFO) at 100 µM, an iron chelator that mimics hypoxia, for 20 h
- Read-out: 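Firefly luciferase driven by the mouse ldh-a hypoxia-response element, measured after 20 h of 100 µM DFO; z-scores per plate, higher means more signal lost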
- Direction: z-score: higher = stronger loss of HIF reporter signal

z-score, replicate 1 | z-score, replicate 2 | Gene | DRSC id
-0.2 | 0 | CG34325 (GeneID 32656) | DRSC19802
-0.2 | -0.6 | CG34325 (GeneID 32656) | DRSC20200
-0.2 | 0.5 | TwdlM (GeneID 43200) | DRSC15810
-0.3 | -0.4 | Pi4KIIalpha (GeneID 40670) | DRSC12322
-0.3 | 0 | Pi4KIIalpha (GeneID 40670) | DRSC12323
-0.2 | -0.2 | SdhA (GeneID 37228) | DRSC07547
-0.3 | -0.2 | CG6800 (GeneID 42562) | DRSC16119
0.6 | 0.4 | E5 (GeneID 45396) | DRSC13000
0.9 | 2.7 | E5 (GeneID 45396) | DRSC16585
0.3 | -0.3 | ago (GeneID 38516) | DRSC08463
-0.4 | -0.7 | form3 (GeneID 3346238) | DRSC10195
-0.2 | -0.9 | form3 (GeneID 3346238) | DRSC10297
-0.4 | -0.7 | form3 (GeneID 3346238) | DRSC11024
0 | -0.3 | Or24a (GeneID 33623) | DRSC00768
0.1 | 0.6 | Hrb98DE (GeneID 43385) | DRSC16709
0.1 | -0.1 | CG1494 (GeneID 33102) | DRSC20509
-0.1 | -0.3 | ast (GeneID 33282) | DRSC00803
0 | 0 | CG8419 (GeneID 34118) | DRSC03087
0 | 0.7 | CG6481 (GeneID 32843) | DRSC19995
0.3 | 1.1 | U4-U6-60K (GeneID 39955) | DRSC10624
0 | 0 | CG17571 (GeneID 35409) | DRSC01768
-0.4 | -0.7 | CG17571 (GeneID 35409) | DRSC03755
0.9 | 0.4 | Taf7 (GeneID 40934) | DRSC15445
0.1 | -0.2 | CG30110 (GeneID 246462) | DRSC05686
-0.3 | -0.4 | Lcp3 (GeneID 35819) | DRSC07457
-0.4 | 0 | Vha100-4 (GeneID 42214) | DRSC16282
-0.2 | -0.3 | CG6168 (GeneID 39273) | DRSC10596
-0.3 | -0.2 | Pcyt2 (GeneID 38180) | DRSC08531
-0.1 | 0.2 | CG7115 (GeneID 34069) | DRSC02000
-0.2 | -0.4 | FANCI (GeneID 35895) | DRSC06416
-0.4 | 0 | CG8272 (GeneID 35875) | DRSC07134
-0.3 | -0.4 | JYalpha (GeneID 5740846) | DRSC17224
0.6 | 1.1 | PIG-H + Kmn2 | DRSC12653
0.1 | -0.9 | UBL3 (GeneID 32541) | DRSC20298
1.4 | 3.8 | Smr (GeneID 32225) | DRSC19495
1.4 | 2.7 | Smr (GeneID 32225) | DRSC20288
0.2 | -0.1 | PolI (GeneID 40965) | DRSC16267
-0.3 | 0.2 | CG33769 (GeneID 3772499) | DRSC11716
0 | 0.2 | Grl36b (GeneID 318940) | DRSC01627
0.5 | 0 | BEAF-32 + CG42254 (retired record) | DRSC05503
-0.2 | -0.4 | Kpc2 (GeneID 37261) | DRSC07635
-0.3 | -0.3 | CG1231 (GeneID 38060) | DRSC08267
-0.3 | -0.6 | mat (GeneID 38107) | DRSC08376
0.1 | 0.2 | Tdh (GeneID 40268) | DRSC11788
-0.2 | -0.4 | Mkp + CG34140 | DRSC08585
-0.9 | -1.2 | Rab10 (GeneID 33025) | DRSC20572
-0.2 | -0.5 | CG7987 (GeneID 41768) | DRSC16357
-0.3 | -0.1 | I-t (GeneID 41414) | DRSC16713
-0.1 | -0.5 | hgo (GeneID 34552) | DRSC03544
-0.3 | -0.4 | Gasz (GeneID 35795) | DRSC06829
-0.5 | -0.5 | CG31639 (GeneID 318866) | DRSC00910
-0.3 | -0.6 | eloF (GeneID 41211) | DRSC15162
-0.3 | -0.4 | CG17807 (GeneID 37585) | DRSC04296
0.4 | -0.1 | Gr58a (GeneID 117344) | DRSC03910
-0.2 | 0.3 | CG10077 (GeneID 38756) | DRSC09691
-0.4 | -0.3 | Mlh1 (GeneID 35796) | DRSC07473
-0.4 | -0.2 | sna (GeneID 34908) | DRSC03613
-0.2 | 0.8 | CG15533 (GeneID 43612) | DRSC15069
-0.4 | -0.3 | or (GeneID 43943) | DRSC04329
-0.1 | -0.2 | CG34228 (GeneID 5740377) | DRSC05300
-0.2 | -0.3 | PGRP-LE (GeneID 32534) | DRSC20137
-0.4 | -0.6 | Ptp69D (GeneID 39443) | DRSC11258
-0.4 | -0.1 | CG2663 (GeneID 40649) | DRSC12314
0.4 | 1 | gt (GeneID 31227) | DRSC18782

Copied from the listing, 6 entries:
z-score, replicate 1 | z-score, replicate 2 | Gene | DRSC id
0 | 0.2 | Grl36b (GeneID 318940) | DRSC01627
0.5 | 0 | BEAF-32 + CG42254 (retired record) | DRSC05503
-0.2 | -0.4 | Kpc2 (GeneID 37261) | DRSC07635
-0.3 | -0.3 | CG1231 (GeneID 38060) | DRSC08267
-0.3 | -0.6 | mat (GeneID 38107) | DRSC08376
0.1 | 0.2 | Tdh (GeneID 40268) | DRSC11788

The results go on:
z-score, replicate 1 | z-score, replicate 2 | Gene | DRSC id
-0.2 | -0.4 | Ir68a (GeneID 39269) | DRSC10599
-0.3 | -0.2 | Naa40 (GeneID 43500) | DRSC16265
-0.4 | -0.9 | ClC-c (GeneID 39759) | DRSC10499
-0.3 | -0.4 | Pka-C1 (GeneID 34284) | DRSC03399
-0.1 | -0.4 | CG14695 (GeneID 41314) | DRSC14918
-0.6 | -0.7 | CG15535 (GeneID 43608) | DRSC15071
2.4 | 1 | PolrMT (GeneID 33285) | DRSC00660
-0.3 | 0.1 | CG8531 (GeneID 36584) | DRSC07209
3.8 | 4.5 | orb (GeneID 42752) | DRSC17021
-0.3 | -0.1 | Cad89D (GeneID 42006) | DRSC15022
-0.3 | -0.7 | idc (GeneID 42393) | DRSC15680
-0.4 | -0.1 | CG8043 (GeneID 41030) | DRSC16368
-0.3 | -0.3 | CG11400 (GeneID 36935) | DRSC06070
-0.3 | 0.1 | CG11122 (GeneID 32046) | DRSC19382
0.4 | 2.3 | CCT8 (GeneID 35882) | DRSC07130
-0.2 | 0.1 | NSD (GeneID 43351) | DRSC15691
0.3 | -0.1 | CG40948 (retired record) (GeneID 5740550) | DRSC20944
-0.1 | 0.2 | MKP-4 (GeneID 32963) | DRSC19567
0 | -0.2 | ZnT63C (GeneID 38407) | DRSC08032
-0.3 | -0.4 | ZnT63C (GeneID 38407) | DRSC08033
-0.3 | -0.3 | ZnT63C (GeneID 38407) | DRSC08519
-0.3 | 0 | Obp85a (GeneID 41006) | DRSC14362
-0.1 | -0.3 | CG1113 (GeneID 40629) | DRSC12163
-0.4 | 0 | CG5302 (retired record) (GeneID 41898) | DRSC15764
-0.5 | -0.4 | CG5302 (retired record) (GeneID 41898) | DRSC15765
-0.3 | -0.3 | LysB (GeneID 38125) | DRSC08673
-0.5 | -0.8 | asf1 (GeneID 40141) | DRSC11324
-0.3 | -0.3 | CG10958 (GeneID 31736) | DRSC17768
0.2 | -0.2 | CG43328 (GeneID 246625) | DRSC05640
-0.3 | 0.2 | AstC-R2 (GeneID 40019) | DRSC10051
-0.2 | -0.2 | CG11275 (GeneID 37534) | DRSC04095
-0.5 | -0.4 | kek5 (GeneID 32930) | DRSC19438
-0.1 | -0.3 | CG12118 (GeneID 31857) | DRSC17813
-0.3 | -0.5 | CG14613 (GeneID 33133) | DRSC20625
-0.2 | 0 | CG11983 (GeneID 41081) | DRSC14458
-0.3 | 0.2 | CG5217 (GeneID 42311) | DRSC15740
-0.8 | -0.1 | CG31245 (GeneID 42316) | DRSC15498
0.3 | -0.6 | Synd (GeneID 42467) | DRSC15116
0 | 0 | WASp (GeneID 43402) | DRSC15032
-0.3 | -0.5 | AttB (GeneID 36637) | DRSC06734
-0.4 | -0.6 | Cyp28d1 (GeneID 33749) | DRSC03298
-0.2 | 0 | Or67b (GeneID 39120) | DRSC11241
